Small-molecule microarray binding calls

Source: the ROBIN nucleic acid binder screens (doi:10.1002/anie.202211358).

Targets, with sequences 5′ to 3′:
T1: SAM-II riboswitch RNA pseudoknot, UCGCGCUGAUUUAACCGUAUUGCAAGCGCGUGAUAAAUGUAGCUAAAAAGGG. About 21,000 compounds screened, about 200 hits.
T2: PreQ1 riboswitch RNA pseudoknot, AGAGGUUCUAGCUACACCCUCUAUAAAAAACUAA. From B. subtilis. About 24,000 compounds screened, about 170 hits.
T3: TPP riboswitch RNA three-way junction, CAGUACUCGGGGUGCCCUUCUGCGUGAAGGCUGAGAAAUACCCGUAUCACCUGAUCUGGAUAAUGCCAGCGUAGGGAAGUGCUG. About 24,000 compounds screened, about 160 hits.

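Each compound is printed as two spots on a slide made to bind it covalently, so it has no test concentration; the read-out is fluorescence of the bound, labelled oligonucleotide. The data file lists only calls. An earlier report of the laboratory on the PreQ1, TPP and SAM-II riboswitches (doi:10.1038/s41467-019-09493-3) used 1 µM RNA for 2 h and required a mean Z-score above 3 (spot signal-to-noise against the whole library), a score well above that on a control array, and duplicate spots agreeing (coefficient of variation under 100); it then also set aside compounds that hit other targets, which this list keeps. The cut-offs behind this list may differ. These are primary screening calls, not affinities; a compound without a hit may have attached poorly or may still bind in solution.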
A compound is marked active if it was called a hit and inactive if it was screened but was not.
This is an unselected part of the compounds tested.
A target missing from an entry has no call listed here.
A dash means that no call is listed here.

compound	T1	T2	T3
Cc1ccc(C(CCN)C2CCOC(C)(C)C2)cc1 (stereo not shown)	inactive	inactive	inactive
COC(=O)c1c(NC2=NS(=O)(=O)c3ccccc32)sc2c1CCCC2	inactive	inactive	inactive
COc1ccccc1-c1cnn2c(Nc3ccccc3)cc(C)nc12	-	inactive	inactive
c1ccc(-c2ncn(C3CCNC3)c2-c2cccn2-c2nccs2)cc1 (stereo not shown)	inactive	inactive	inactive
CC(Cn1cnc2ccccc2c1=O)NCc1noc(-c2ccco2)n1 (stereo not shown)	inactive	inactive	inactive
CCN1CCc2nc3sc(C(=O)Nc4ccc(C(F)(F)F)cc4)c(N)c3cc2C1	active	inactive	inactive
CC(C)N1CC(=O)C(c2nc(-c3ccccc3)cs2)=C1N	-	inactive	inactive
O=C(O)c1[nH]c(=O)[nH]c(=O)c1F	inactive	inactive	inactive
Cn1ccnc1C(O)C1CCN(CCC(=O)Nc2nccs2)CC1 (stereo not shown)	inactive	inactive	inactive
Cc1cccc2ncc(C(=O)N3C[C@H](CO)C[C@H](CN(C)C)C3)c(=O)n12	inactive	inactive	inactive
Cc1ccc(NC2c3ccccc3C(=O)N2c2ccc(C)cn2)cc1 (stereo not shown)	inactive	inactive	inactive
CCOC(=O)c1cnoc1N	inactive	inactive	inactive
Cc1cc(N)n(-c2ccc(-c3noc(-c4cc(C(C)C)on4)n3)cc2)n1	inactive	inactive	inactive
COc1ccc(Cn2c(C(=O)O)c(CNC3CC3)c3ccc(OC)cc32)cc1	-	inactive	inactive
COc1cc(C2c3c(-c4ccccc4O)n[nH]c3C(=O)N2CCCO)cc(Br)c1O (stereo not shown)	-	inactive	inactive
O=S1(=O)C[C@H](NCc2ccccc2F)[C@@H](S(=O)(=O)c2ccc(F)cc2)C1	-	inactive	inactive
Fc1ccc(CNc2nc3ccc(Cl)cc3s2)cc1	inactive	inactive	inactive
N#Cc1c(-c2ccc3c(c2)OCCO3)cc(-c2ccco2)nc1N	inactive	inactive	inactive
Cc1cn(COCCO)c(=O)[nH]c1=O	inactive	inactive	inactive
CCOc1ccccc1Nc1ncnc2c1nc1n2CCCC1	-	inactive	inactive
N#CC1=C(N)Oc2c(c(=O)sc3ccccc23)C1c1ccncc1 (stereo not shown)	inactive	inactive	inactive
N[C@@H](Cc1c[nH]cn1)C(=O)N1CCCN(Cc2ccc(F)cc2)CC1	inactive	inactive	inactive
Cc1ccc(-c2c(NC3CCCC(C)C3C)c(=O)c2=O)cc1C (stereo not shown)	-	inactive	inactive
CCCCSc1nc(=O)cc(C(=O)O)[nH]1	inactive	inactive	inactive
O=[N+]([O-])c1cc(S(=O)(=O)Nc2ccccc2)ccc1NCc1ccccc1	inactive	inactive	inactive
O=C(O)C1CC2(CCN(C(=O)NCc3ccccc3F)CC2)CN1 (stereo not shown)	inactive	inactive	inactive
Cn1ncc2c(Nc3ccc(Cl)cc3)nc(N3CCCCC3)nc21	-	inactive	inactive
Cc1ccc(NC2CCCCC2NS(=O)(=O)c2ccc(Cl)cc2)c(C)c1 (stereo not shown)	-	inactive	inactive
CC(=O)N1CCN(CC(O)COc2ccccc2)CC1 (stereo not shown)	inactive	inactive	inactive
COc1ccc(C2C(C(C)=O)=C(O)C(=O)N2CCCO)cc1 (stereo not shown)	inactive	inactive	inactive
Nc1csc2nc(=O)c(-c3ccccc3)nn12	inactive	inactive	inactive
Cn1nc(-c2cc(C(C)(C)O)nc(N)c2C#N)c2c(Cl)cccc21	inactive	inactive	inactive
O=C(CNc1ccc(Cl)cc1)NN=C1CCCCCC1	inactive	inactive	inactive
Nc1ccc(S(N)(=O)=O)cc1	inactive	inactive	inactive
CCOc1ccc(Nc2cc(C)nc3nc(Cc4ccccc4)nn23)cc1	-	inactive	inactive
Cc1cc(C)c(-c2c(NCCN3CCN(c4ccccc4F)CC3)c(=O)c2=O)cc1C	-	inactive	inactive
CC1CCN(c2c(NCC3CCC(C(=O)N4CCCC4)CC3)c(=O)c2=O)CC1 (stereo not shown)	-	inactive	inactive
O=c1c2cnc3ncnn3c2ccn1CCCO	inactive	inactive	inactive
CN(C)C(=S)/N=c1\ssc(=S)n1Cc1ccco1	inactive	inactive	inactive
CCOC(=O)c1cccc(Nc2c(-c3cc(Br)ccc3O)nc3cnccn23)c1	-	inactive	inactive
CN(CC1CCCNC1)C(=O)c1ccc(CSc2ccccn2)cc1 (stereo not shown)	inactive	inactive	inactive
O=C(CCN1Cc2ccccc2C1)N[C@H]1CC[C@H]1NC1CCOCC1	inactive	inactive	inactive
COc1cccc(Nc2c3c(nc4nncn24)CCC3)c1	-	inactive	inactive
Fc1cccc(CN2CCC(C3CCNC3)CC2)c1F (stereo not shown)	inactive	inactive	inactive
CCc1n[nH]c(SCC(=O)N2CCN(Cc3ccoc3)C(CCO)C2)n1 (stereo not shown)	inactive	inactive	inactive
O=C(CCc1ccccn1)N1C[C@@H](CN2CCCCC2)[C@@H](CO)C1	inactive	inactive	inactive
Cc1cc(Nc2nc3ccccc3c3nnc(C)n23)ccc1Br	-	inactive	inactive
O=C(NCCn1nc(-c2ccccc2)ccc1=O)C1NCCc2[nH]cnc21 (stereo not shown)	inactive	inactive	inactive
CC(C)=CCC1(CO)CCCN(C(=O)c2cccc(O)c2)C1 (stereo not shown)	inactive	inactive	inactive
CC(=O)c1ccc(NC2=NS(=O)(=O)c3ccccc32)cc1	-	inactive	inactive
Cc1cc(-n2nc(C)nc2-c2cn(CCN)nn2)ccn1	inactive	inactive	inactive
COc1ccc(OCCN[C@H]2CS(=O)(=O)C[C@@H]2S(=O)(=O)c2ccc(F)c(C)c2)cc1	-	inactive	inactive
NCC1CCN(c2cnn(Cc3ccccc3-c3ccccc3)c(=O)c2)C1 (stereo not shown)	inactive	inactive	inactive
CN(Cc1nccs1)C(=O)c1cn(CC2CCCNC2)nn1 (stereo not shown)	inactive	inactive	inactive
C=CCc1cc(OC)c(O)c(C(=O)NCCO)c1	inactive	inactive	inactive
Cc1nc([C@H](C)O)n(-c2cccc3ccccc23)n1	inactive	inactive	inactive

For reference, 6 entries once more:

* CC(C)N1CC(=O)C(c2nc(-c3ccccc3)cs2)=C1N : T2: inactive; T3: inactive
* O=[N+]([O-])c1cc(S(=O)(=O)Nc2ccccc2)ccc1NCc1ccccc1 : T1: inactive; T2: inactive; T3: inactive
* Cc1cc(N)n(-c2ccc(-c3noc(-c4cc(C(C)C)on4)n3)cc2)n1 : T1: inactive; T2: inactive; T3: inactive
* CN(Cc1nccs1)C(=O)c1cn(CC2CCCNC2)nn1 (stereo not shown) : T1: inactive; T2: inactive; T3: inactive
* Cc1ccc(NC2c3ccccc3C(=O)N2c2ccc(C)cn2)cc1 (stereo not shown) : T1: inactive; T2: inactive; T3: inactive
* CCOC(=O)c1cccc(Nc2c(-c3cc(Br)ccc3O)nc3cnccn23)c1 : T2: inactive; T3: inactive